Results on two molecules are retold here after publication doi:10.1101/2023.06.28.546937.

Where two headings read alike, the source gives them in different places. These are yes or no findings as the source states them, for the method shown. Binding can be weak; no strength is given. Where a sequence is shown, tags or fusion partners need not be part of it.

What all share (experiment): pull-down
The target in test [1] is GST-Doc1 (Dorsocross1) (Drosophila).
The target is the same in test [2]. The source holds these as a separate data set.
For test [3] the target is unchanged. This is another data set of the same source.

B1: MBP-Tin homeodomain, wild-type (domain or fragment, UniProt P22711 301-360)
chain: KRKPRVLFSQAQVLELECRFRLKKYLTGAEREIIAQKLNLSATQVKIWFQNRRYKSKRGD
With B1, the binding result in test [1] and in test [2] was “binds” throughout.

B2: MBP-Tin homeodomain R321N (domain or fragment, UniProt P22711 301-360)
chain: KRKPRVLFSQAQVLELECRFNLKKYLTGAEREIIAQKLNLSATQVKIWFQNRRYKSKRGD
In the case of B2, the binding entry in test [3] and in test [1] was “binds” throughout.
